{"source": "the supplement of paper PMC10338343", "note": "± gives the standard deviation. Some of the results follow. Many entries were measured with a wide error.", "data": [{"system": "EfPiwi piRISC loaded with L1MC piRNA (26 nt)", "assay": "pre-steady-state target cleavage rate (min^-1); guide: L1MC piRNA 5'p-UAACUAAAUACUAUGCAAGCUGUAGG; higher = faster piRNA-guided slicing of the target", "details": "auxiliary factor: 500 nM Ephydatia muelleri Gtsf1", "method_in_brief": "(§1)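 The pre-steady-state cleavage rate was derived from a burst-and-steady-state fit of Cleave-'n-Seq data. For these assays, 1 nM active affinity-purified piRISC loaded with a single synthetic guide was mixed with […] a transcribed, DNA-blocked target RNA library in HEPES–potassium acetate buffer at 33 °C, with or without 500 nM GTSF1 partner protein, for 0–8 or 0–960 min. Sequencing counts of uncleaved targets were normalised to depth and to weakly complementary targets, and k3 was capped at 0.0001 min^-1 after three trials were pooled.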", "values": [{"sequence": "UCCUGGAACACGUUGCAUAGUAUUUAGUUA", "pre-steady-state target cleavage rate": "0.0172 ± 0.0053"}, {"sequence": "UCCUGGAACAGCUUGCAUAGUAGUUUAGUUA", "pre-steady-state target cleavage rate": "0.0047 ± 0.0024"}, {"sequence": "UCCUGGAUGAAGCUUGCAUAGUAUUUAGUUA", "pre-steady-state target cleavage rate": "0.0366 ± 0.0082"}, {"sequence": "UCCUGGAAGAGCUUGCAUAGUAUUAAGUUA", "pre-steady-state target cleavage rate": "0.00519 ± 0.0018"}, {"sequence": "UCCUGGAUGUGCUUGCAUACUAUUUAGUUA", "pre-steady-state target cleavage rate": "0.0112 ± 0.0036"}, {"sequence": "UCCUGGAUCAGCUUGCAUAGAUUUUAGUUA", "pre-steady-state target cleavage rate": "0.00193 ± 0.0042"}, {"sequence": "UCCUGGAUCAGCUUGCAAACUAUUUAGUUA", "pre-steady-state target cleavage rate": "0.00476 ± 0.003"}, {"sequence": "UCCUGGUACAGCUUGCUUAGUUUUUAGUUA", "pre-steady-state target cleavage rate": "0.00346 ± 0.003"}, {"sequence": "UCCUCCAACAGCUUCCAUAGUAUUUAGUUA", "pre-steady-state target cleavage rate": "0.00439 ± 0.0021"}, {"sequence": "UCCUGGAUCAGCUUGCAUAGCAUUUAGUUA", "pre-steady-state target cleavage rate": "0.00774 ± 0.0021"}, {"sequence": "UCCUGGUACAGCUUGCUUUGUAUUUAGUUA", "pre-steady-state target cleavage rate": "0.0014 ± 0.0044"}, {"sequence": "UCCUGCUACAGCUUGCAUAGUUAUUUAGUUA", "pre-steady-state target cleavage rate": "0.00578 ± 0.0032"}, {"sequence": "UCCUGGAUGACCUUGCAAAGUAUUUAGUUA", "pre-steady-state target cleavage rate": "0.00391 ± 0.0037"}, {"sequence": "UCCUCCUACAGCUUGCAAGUAUUUAGUUA", "pre-steady-state target cleavage rate": "0.00641 ± 0.0026"}, {"sequence": "UCCUCCUACAGCUUGCAUAGAAUUUAGAAA", "pre-steady-state target cleavage rate": "0.00385 ± 0.0019"}, {"sequence": "UCCUGGUACAGCUGCAUAGUAUUUAGUUA", "pre-steady-state target cleavage rate": "0.00843 ± 0.0034"}, {"sequence": "UCCUGGAACUGCUUGCAUUGUAUUUAGUUA", "pre-steady-state target cleavage rate": "0.00574 ± 0.0019"}, {"sequence": "UCCUGCUACAGCUUACAUAGUAUUUAGUUA", "pre-steady-state target cleavage rate": "0.0151 ± 0.0038"}, {"sequence": "UCCUGGUACUGCUUGCUUAGUAUUUAGUUA", "pre-steady-state target cleavage rate": "0.00909 ± 0.0033"}, {"sequence": "UCCUGGAUGAGCUAGCAAAGUAUUUAGUUA", "pre-steady-state target cleavage rate": "0.00186 ± 0.002"}, {"sequence": "UCCUGGAACACCUUGCAUAGUAUUUAGUUA", "pre-steady-state target cleavage rate": "0.0061 ± 0.0032"}, {"sequence": "UCCUCCUACAGCUUGCAUAGAUUUUAGUUA", "pre-steady-state target cleavage rate": "0.0032 ± 0.002"}, {"sequence": "UCCUCCUACAGCUUGCAUAGUUUUUUCAAA", "pre-steady-state target cleavage rate": "0.00481 ± 0.0034"}, {"sequence": "UCCUGGAUGUGCUUGCAUUGUAUUUAGUUA", "pre-steady-state target cleavage rate": "0.00484 ± 0.0027"}, {"sequence": "UCCUGGAUCAGCUUGCCUAGUAUUUAGUUA", "pre-steady-state target cleavage rate": "0.0512 ± 0.011"}, {"sequence": "UCCUGGUACAGCUUGCAUAGUAUUAUGUUA", "pre-steady-state target cleavage rate": "0.00349 ± 0.0025"}, {"sequence": "UCCUCCUACACCUUGCAAAGUAUUUAGUUA", "pre-steady-state target cleavage rate": "0.0172 ± 0.007"}, {"sequence": "UCCUGGAACAGCUUGCAUAGUAUUUAGAAA", "pre-steady-state target cleavage rate": "0.00395 ± 0.0012"}, {"sequence": "UCCUGGAACAUGCUUGCAUAGUAUUUAGUUA", "pre-steady-state target cleavage rate": "0.0178 ± 0.0057"}, {"sequence": "UCCUGCUACAGGAAGCAUAGUAUUUAGUAA", "pre-steady-state target cleavage rate": "0.00302 ± 0.0027"}, {"sequence": "UCCUCCUACAGCUUGCAUAGAAUUUAGUAA", "pre-steady-state target cleavage rate": "0.00443 ± 0.0022"}, {"sequence": "UCCUGGAUCAGGUUGCAUAGUUUUUAGUUA", "pre-steady-state target cleavage rate": "0.00481 ± 0.0024"}, {"sequence": "UCCUGGUACAGCUUGCAUAGUCUUUAGUUA", "pre-steady-state target cleavage rate": "0.00738 ± 0.0024"}, {"sequence": "UCCUGGAUGACGUUGCAUAGUAUUUAGUUA", "pre-steady-state target cleavage rate": "0.00512 ± 0.0026"}, {"sequence": "UCCUCCUACAGGUUGCAUAGUAUUUACUUA", "pre-steady-state target cleavage rate": "0.00113 ± 0.0018"}, {"sequence": "UCCUGCUACACCUUGCAUAGUAUUUUGUUA", "pre-steady-state target cleavage rate": "0.00317 ± 0.0023"}, {"sequence": "UCCUGGAUGUGCUUGCAUAGUAUUGUAGUUA", "pre-steady-state target cleavage rate": "0.00579 ± 0.0041"}, {"sequence": "UCCUGCUACAGCUUGCAAAGUAUUUAGUAA", "pre-steady-state target cleavage rate": "0.00434 ± 0.0016"}, {"sequence": "UCCUGCUUCAGCUUGCAUACUAUUUAGUUA", "pre-steady-state target cleavage rate": "0.00801 ± 0.0025"}, {"sequence": "UCCUGCUACAGCUUGCAUAGUAUCUUAGUUA", "pre-steady-state target cleavage rate": "0.00633 ± 0.0017"}]}, {"system": "EfPiwi piRISC loaded with L1MC piRNA (26 nt)", "assay": "pre-steady-state target cleavage rate (min^-1); guide: L1MC piRNA 5'p-UAACUAAAUACUAUGCAAGCUGUAGG; MIWI and MILI are mouse PIWI proteins and EfPiwi is from a freshwater sponge; tags in brackets are library labels; higher = faster piRNA-guided slicing of the target", "details": "auxiliary factor: none (no Gtsf1)", "method_in_brief": "as §1", "values": [{"sequence": "UCCUGGAACACGUUGCAUAGUAUUUAGUUA", "pre-steady-state target cleavage rate": "0.000591 ± 0.021"}, {"sequence": "UCCUGGAACAGCUUGCAUAGUAGUUUAGUUA", "pre-steady-state target cleavage rate": "0.000654 ± 0.016"}, {"sequence": "UCCUGGAUGAAGCUUGCAUAGUAUUUAGUUA", "pre-steady-state target cleavage rate": "0.0015 ± 0.0074"}, {"sequence": "UCCUGGAAGAGCUUGCAUAGUAUUAAGUUA", "pre-steady-state target cleavage rate": "0.000687 ± 0.014"}, {"sequence": "UCCUGGAUGUGCUUGCAUACUAUUUAGUUA", "pre-steady-state target cleavage rate": "0.00208 ± 0.0062"}, {"sequence": "UCCUGGAUCAGCUUGCAUAGAUUUUAGUUA", "pre-steady-state target cleavage rate": "0.000486 ± 0.017"}, {"sequence": "UCCUGGAUCAGCUUGCAAACUAUUUAGUUA", "pre-steady-state target cleavage rate": "0.000388 ± 0.019"}, {"sequence": "UCCUGGUACAGCUUGCUUAGUUUUUAGUUA", "pre-steady-state target cleavage rate": "0.000615 ± 0.021"}, {"sequence": "UCCUCCAACAGCUUCCAUAGUAUUUAGUUA", "pre-steady-state target cleavage rate": "0.000528 ± 0.01"}, {"sequence": "UCCUGGAUCAGCUUGCAUAGCAUUUAGUUA", "pre-steady-state target cleavage rate": "0.00546 ± 0.0038"}, {"sequence": "UCCUGGUACAGCUUGCUUUGUAUUUAGUUA", "pre-steady-state target cleavage rate": "0.000456 ± 0.024"}, {"sequence": "UCCUGCUACAGCUUGCAUAGUUAUUUAGUUA", "pre-steady-state target cleavage rate": "0.000608 ± 0.011"}, {"sequence": "UCCUGGAUGACCUUGCAAAGUAUUUAGUUA", "pre-steady-state target cleavage rate": "0.000492 ± 0.017"}, {"sequence": "UCCUCCUACAGCUUGCAAGUAUUUAGUUA", "pre-steady-state target cleavage rate": "0.000999 ± 0.0064"}, {"sequence": "UCCUCCUACAGCUUGCAUAGAAUUUAGAAA", "pre-steady-state target cleavage rate": "0.000377 ± 0.012"}, {"sequence": "UCCUGGUACAGCUGCAUAGUAUUUAGUUA", "pre-steady-state target cleavage rate": "0.000524 ± 0.016"}, {"sequence": "UCCUGGAACUGCUUGCAUUGUAUUUAGUUA", "pre-steady-state target cleavage rate": "0.000382 ± 0.021"}, {"sequence": "UCCUGCUACAGCUUACAUAGUAUUUAGUUA", "pre-steady-state target cleavage rate": "0.000684 ± 0.0091"}, {"sequence": "UCCUGGUACUGCUUGCUUAGUAUUUAGUUA", "pre-steady-state target cleavage rate": "0.000482 ± 0.025"}, {"sequence": "UCCUGGAUGAGCUAGCAAAGUAUUUAGUUA", "pre-steady-state target cleavage rate": "0.000402 ± 0.012"}, {"sequence": "UCCUGGAACACCUUGCAUAGUAUUUAGUUA", "pre-steady-state target cleavage rate": "0.00104 ± 0.0086"}, {"sequence": "UCCUCCUACAGCUUGCAUAGAUUUUAGUUA", "pre-steady-state target cleavage rate": "0.000839 ± 0.006"}, {"sequence": "UCCUCCUACAGCUUGCAUAGUUUUUUCAAA", "pre-steady-state target cleavage rate": "0.000875 ± 0.0089"}, {"sequence": "UCCUGGAUGUGCUUGCAUUGUAUUUAGUUA", "pre-steady-state target cleavage rate": "0.00246 ± 0.005"}, {"sequence": "UCCUGGAUCAGCUUGCCUAGUAUUUAGUUA", "pre-steady-state target cleavage rate": "0.00091 ± 0.012"}, {"sequence": "UCCUGGUACAGCUUGCAUAGUAUUAUGUUA", "pre-steady-state target cleavage rate": "0.000372 ± 0.025"}, {"sequence": "UCCUCCUACACCUUGCAAAGUAUUUAGUUA", "pre-steady-state target cleavage rate": "0.000798 ± 0.0072"}, {"sequence": "UCCUGGAACAGCUUGCAUAGUAUUUAGAAA", "pre-steady-state target cleavage rate": "0.000244 ± 0.022"}, {"sequence": "UCCUGGAACAUGCUUGCAUAGUAUUUAGUUA", "pre-steady-state target cleavage rate": "0.00169 ± 0.0067"}, {"sequence": "UCCUGCUACAGGAAGCAUAGUAUUUAGUAA", "pre-steady-state target cleavage rate": "0.000137 ± 0.028"}, {"sequence": "UCCUCCUACAGCUUGCAUAGAAUUUAGUAA", "pre-steady-state target cleavage rate": "0.00056 ± 0.0076"}, {"sequence": "UCCUGGAUCAGGUUGCAUAGUUUUUAGUUA", "pre-steady-state target cleavage rate": "0.000404 ± 0.027"}, {"sequence": "UCCUGGUACAGCUUGCAUAGUCUUUAGUUA", "pre-steady-state target cleavage rate": "0.000671 ± 0.02"}, {"sequence": "UCCUGGAUGACGUUGCAUAGUAUUUAGUUA", "pre-steady-state target cleavage rate": "0.000403 ± 0.038"}, {"sequence": "UCCUCCUACAGGUUGCAUAGUAUUUACUUA", "pre-steady-state target cleavage rate": "0.000178 ± 0.018"}, {"sequence": "UCCUGCUACACCUUGCAUAGUAUUUUGUUA", "pre-steady-state target cleavage rate": "0.000533 ± 0.015"}, {"sequence": "UCCUGGAUGUGCUUGCAUAGUAUUGUAGUUA", "pre-steady-state target cleavage rate": "0.000484 ± 0.032"}, {"sequence": "UCCUGCUACAGCUUGCAAAGUAUUUAGUAA", "pre-steady-state target cleavage rate": "0.000302 ± 0.013"}, {"sequence": "UCCUGCUUCAGCUUGCAUACUAUUUAGUUA", "pre-steady-state target cleavage rate": "0.000998 ± 0.0089"}, {"sequence": "UCCUGCUACAGCUUGCAUAGUAUCUUAGUUA", "pre-steady-state target cleavage rate": "0.000789 ± 0.0084"}]}]}
